{"source": "patent US20020143059A1", "about": "“Skin care product containing retinoids, retinoid booster and phytoestrogens in a dual compartment package” (priority 2000, published 2002)", "tested_on": "Retinal Reductase", "experiment": "Assay for Retinal Reductase Activity, liver microsomes", "type": "biochemical, rat", "conditions": "test compound final 100 μM (method)", "note": "For at least one compound, name, drawing or mass did not settle the structure.", "data": [{"smiles": "COc1cc(NS(C)(=O)=O)ccc1Nc1c2ccccc2nc2ccccc12", "note": "[Amsacrine, reference compound]", "values": [{"measurement": "% Inhibition Retinal Reductase", "result": 22, "unit": "% +/− 8"}]}]}
